{"source": "paper PMC5354814", "about": "“In silico and in vitro drug screening identifies new therapeutic approaches for Ewing sarcoma” (Oncotarget, 2016)", "type_in_all_cases": "cell-based", "key": {"CHLA-258": {"test_system": "CHLA-258", "test": "Hits validation, dose-response cell proliferation (CellTiter-Glo)", "conditions": "12-point dose-response 50 μmol/L to 1 nmol/L, mean ± SD", "procedure": "(§1) For hits validation and combination study, cells were harvested and aliquoted into 384-well plates at concentrations of 750–1,500 cells per well in a total of 20 μl/well using a Matrix Wellmate (Thermo Scientific). Five μl of culture media containing either vehicles or drug were added to each well the next day (drug concentrations range from 1 nmol/L to 50 μmol/L). For combination study, selected drugs were archived in robotically accessible plates, to which media was added in preparation for addition to master plates by a Nimbus 96 liquid-dispensing workstation (Hamilton). Liquid transfers to dilution and assay plates were handled using the same workstation. Each 384-well master plate contained four 9 by 9 dose-matrix blocks, with eight serial two-fold dilutions (concentrations range from 7.8 nmol/L to 1 μmol/L). Additional wells were reserved for untreated, and vehicle-treated control wells. Cell proliferation was evaluated using Cell-Titer Glo® reagents (Promega). IC50 values were determined for each drug using SigmaPlot (Systat Software). The combination index values were calculated using SigmaPlot (Systat Software) and CompuSyn."}, "COG-E-352": {"test_system": "COG-E-352", "test": "Hits validation, dose-response cell proliferation (CellTiter-Glo)", "conditions": "12-point dose-response 50 μmol/L to 1 nmol/L, mean ± SD", "procedure": "as §1"}, "Hs 822.T.": {"test_system": "Hs 822.T.", "test": "Hits validation, dose-response cell proliferation (CellTiter-Glo)", "conditions": "control cell line, 12-point dose-response, mean ± SD", "procedure": "as §1"}, "Hs 863.T.": {"test_system": "Hs 863.T.", "test": "Hits validation, dose-response cell proliferation (CellTiter-Glo)", "conditions": "control cell line, 12-point dose-response, mean ± SD", "procedure": "as §1"}, "RD-ES [1]": {"test_system": "RD-ES", "test": "Hits validation, dose-response cell proliferation (CellTiter-Glo)", "conditions": "12-point dose-response 50 μmol/L to 1 nmol/L, mean ± SD", "procedure": "as §1"}, "SK-ES-1 [2]": {"test_system": "SK-ES-1", "test": "Hits validation, dose-response cell proliferation (CellTiter-Glo)", "conditions": "Homo sapiens, SK-ES1; 12-point dose-response 50 μmol/L to 1 nmol/L, mean ± SD", "procedure": "as §1"}, "TC-71": {"test_system": "TC-71", "test": "Hits validation, dose-response cell proliferation (CellTiter-Glo)", "conditions": "12-point dose-response 50 μmol/L to 1 nmol/L, mean ± SD", "procedure": "as §1"}, "Hs 919.T. [3]": {"test_system": "Hs 919.T.", "test": "Hits validation, dose-response cell proliferation (CellTiter-Glo)", "conditions": "control cell line, 12-point dose-response, mean ± SD", "procedure": "These drugs were chosen based on their known mechanisms and safety profiles. We also tested the synergy between these drug hits (Supplementary Figures S6–S11). […] We evaluated the anti-proliferation effect in combination treatments using the EWS and control cell lines.\nas §1, with “Additional wells were reserved for untreated, and vehicle-treated control wells.” left out"}, "A673": {"test_system": "A673", "test": "In vitro high-throughput screen of FDA-approved drug library (CellTiter-Glo)", "conditions": "Homo sapiens, 1 μmol/L drug, 72 hours", "procedure": "(§2) We screened, in parallel to the three computational approaches, an FDA-approved drug library containing 2,316 drugs (1,536 unique chemical entities). […] The drug screening study protocol employed is summarized in Supplementary Table S1.\n(§3) Cells were grown to 80–90% confluence, harvested and aliquoted into 384-well plates (black μClear microplates, Greiner bio-one, Germany) at concentrations of 750–1,500 cells per well in a total volume of 25 μl/well using a Matrix Wellmate (Thermo Scientific). Cells were cultured for 72 hours in a 5% CO2 atmosphere at 37°C. Aliquots of 25 μl CellTiter-Glo® Reagent (Promega) were added directly to each well, the plates were incubated at room temperature for 20 min and the luminescence signal was measured according to the manufacturer's protocol. The measurements were made using Infinite® M200 Pro plate reader (Tecan, Switzerland). […] Data were normalized to percentage inhibition. […]\n(§4) (A) Color scale for drug inhibition values. […]"}, "Hs 919.T. [4]": {"test_system": "Hs 919.T.", "test": "In vitro high-throughput screen of FDA-approved drug library (CellTiter-Glo)", "conditions": "1 μmol/L drug, 72 hours, control cell line", "procedure": "as §2, §3, §4"}, "RD-ES [5]": {"test_system": "RD-ES", "test": "In vitro high-throughput screen of FDA-approved drug library (CellTiter-Glo)", "conditions": "1 μmol/L drug, 72 hours", "procedure": "as §2, §3, §4"}, "SK-ES-1 [6]": {"test_system": "SK-ES-1", "test": "In vitro high-throughput screen of FDA-approved drug library (CellTiter-Glo)", "conditions": "Homo sapiens, SK-ES1; 1 μmol/L drug, 72 hours", "procedure": "as §2, §3, §4"}}}
{"smiles": "CSc1ccc2c(c1)N(CCC1CCCCN1C)c1ccccc1S2", "note": "(stereo not drawn) [Thioridazine]", "values": [{"measurement": "IC50", "setting": "CHLA-258", "result": "16.1 ± 5.52", "unit": "µM"}, {"measurement": "IC50", "setting": "COG-E-352", "result": "10.6 ± 4.37", "unit": "µM"}, {"measurement": "IC50", "setting": "Hs 822.T.", "result": "8.5 ± 1.58", "unit": "µM"}, {"measurement": "IC50", "setting": "Hs 863.T.", "result": "9.24 ± 2.01", "unit": "µM"}, {"measurement": "IC50", "setting": "RD-ES [1]", "result": "15 ± 1.45", "unit": "µM"}, {"measurement": "IC50", "setting": "SK-ES-1 [2]", "result": "15.9 ± 2.47", "unit": "µM"}, {"measurement": "IC50", "setting": "TC-71", "result": "15.9 ± 1.38", "unit": "µM"}, {"measurement": "IC50", "setting": "Hs 919.T. [3]", "result": "8.84 ± 1.29", "unit": "µM"}]}
{"smiles": "CN1CCC[C@@H]1CCO[C@](C)(c1ccccc1)c1ccc(Cl)cc1", "note": "[Clemastine]", "values": [{"measurement": "inhibition at 1 µM", "setting": "A673", "result": 60, "unit": "%"}, {"measurement": "inhibition at 1 µM", "setting": "Hs 919.T. [4]", "result": "< 50", "unit": "%"}, {"measurement": "inhibition at 1 µM", "setting": "RD-ES [5]", "result": "< 50", "unit": "%"}, {"measurement": "inhibition at 1 µM", "setting": "SK-ES-1 [6]", "result": "< 50", "unit": "%"}]}
